Experimental data as given in the supplement of paper PMC10626197.

System: MCF7
Assay: cell viability relative to DMSO control (raw); higher = more viable cells
Settings: exposure time 72 h
Experimental: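 MCF7 cells, 1000 cells/well in 384-well plates, treated with 6x6 dose matrices of drug pairs (1:3 serial dilutions, DMSO as lowest dose) for 72 h at 37 °C. Viability read by CellTiter-Glo luminescence, 3 biological replicates. Normalised viability sets 0% at the highest doxorubicin dose and 100% at the 0,0 µM control per combination.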

CNC(=O)c1ccccc1Sc1ccc2c(/C=C/c3ccccn3)n[nH]c2c1 [Axitinib] + CC(=O)[C@H]1CC[C@H]2[C@@H]3CCC4=CC(=O)CC[C@]4(C)[C@H]3CC[C@]12C [Progesterone]
cell viability [%]
Settings	drug 2 concentration 0 µM	drug 2 concentration 0.0493827 µM	drug 2 concentration 0.148148 µM	drug 2 concentration 0.444444 µM	drug 2 concentration 1.33333 µM	drug 2 concentration 4 µM
drug 1 concentration 0.0555556 µM	94.2	87.1	90.2	80.8	77.3	76.6
drug 1 concentration 0.166667 µM	95.6	96.2	94.1	81.5	80.5	74.3
drug 1 concentration 0.5 µM	85.9	71.7	84	80.7	78.8	71.5
drug 1 concentration 1.5 µM	80.9	79.3	78.8	86.5	77.4	70.9
drug 1 concentration 4.5 µM	70	70.1	67.6	71.1	60.9	54.9

CNC(=O)c1ccccc1Sc1ccc2c(/C=C/c3ccccn3)n[nH]c2c1 [Axitinib] + C[C@@H](Nc1ncnc2[nH]c(-c3ccc(O)cc3)cc12)c1ccccc1 [PKI-166]
cell viability [%]
Settings	drug 2 concentration 0 µM	drug 2 concentration 0.123457 µM	drug 2 concentration 0.37037 µM	drug 2 concentration 1.11111 µM	drug 2 concentration 3.33333 µM	drug 2 concentration 10 µM
drug 1 concentration 0.0555556 µM	94.9	99.6	104	105	103	86.9
drug 1 concentration 0.166667 µM	99.5	99.3	107	107	112	97.2
drug 1 concentration 0.5 µM	105	97.3	96.4	98.2	100	99.3
drug 1 concentration 1.5 µM	86.5	91.6	92	96.2	87.8	82.1
drug 1 concentration 4.5 µM	79.1	78	80.6	77.3	82.1	69.1

CO[C@H]1C(=O)[C@]2(C)[C@@H](OC)C[C@H]3OC[C@@]3(OC(C)=O)[C@H]2[C@H](OC(=O)c2ccccc2)[C@]2(O)C[C@H](OC(=O)[C@H](O)[C@@H](NC(=O)OC(C)(C)C)c3ccccc3)C(C)=C1C2(C)C [Cabazitaxel] + C=C1/C(=C\C=C2/CCC[C@]3(C)[C@@H]([C@H](C)CCCC(C)C)CC[C@@H]23)C[C@@H](O)C[C@@H]1O [Alfacalcidol]
cell viability [%]
Settings	drug 2 concentration 0 µM	drug 2 concentration 0.617284 µM	drug 2 concentration 1.85185 µM	drug 2 concentration 5.55556 µM	drug 2 concentration 16.6667 µM	drug 2 concentration 50 µM
drug 1 concentration 0.0184691 µM	74.5	71.7	68.2	74.1	65.4	0.682
drug 1 concentration 0.0554074 µM	80.8	76.1	77.9	76.1	73	0.861
drug 1 concentration 0.166222 µM	83.6	81	76.9	74.9	75.9	0.372
drug 1 concentration 0.498667 µM	78.3	74.8	74.9	72.6	54.3	0.534
drug 1 concentration 1.496 µM	75.3	67.5	67.9	68.6	56.7	0.41

CO[C@H]1C(=O)[C@]2(C)[C@@H](OC)C[C@H]3OC[C@@]3(OC(C)=O)[C@H]2[C@H](OC(=O)c2ccccc2)[C@]2(O)C[C@H](OC(=O)[C@H](O)[C@@H](NC(=O)OC(C)(C)C)c3ccccc3)C(C)=C1C2(C)C [Cabazitaxel] + C=CC(=O)Nc1cccc(Nc2nc(Nc3ccc(OCCOC)cc3)ncc2F)c1 [Spebrutinib]
cell viability [%]
Settings	drug 2 concentration 0 µM	drug 2 concentration 0.37037 µM	drug 2 concentration 1.11111 µM	drug 2 concentration 3.33333 µM	drug 2 concentration 10 µM	drug 2 concentration 30 µM
drug 1 concentration 0.0184691 µM	103	97.5	99.2	77.1	61.9	5.51
drug 1 concentration 0.0554074 µM	99.7	95.8	89.8	79.2	62.2	10.2
drug 1 concentration 0.166222 µM	104	105	103	78	64.8	10.2
drug 1 concentration 0.498667 µM	93.6	100	94.7	83	50.7	7.55
drug 1 concentration 1.496 µM	107	106	106	85.7	65	7.03

CO[C@H]1C(=O)[C@]2(C)[C@@H](OC)C[C@H]3OC[C@@]3(OC(C)=O)[C@H]2[C@H](OC(=O)c2ccccc2)[C@]2(O)C[C@H](OC(=O)[C@H](O)[C@@H](NC(=O)OC(C)(C)C)c3ccccc3)C(C)=C1C2(C)C [Cabazitaxel] + CCCNC(=O)c1cn2ncnc(Nc3cc(C(=O)NC4CC4)ccc3C)c2c1C [BMS-582949 (hydrochloride)]
cell viability [%]
Settings	drug 2 concentration 0 µM	drug 2 concentration 0.37037 µM	drug 2 concentration 1.11111 µM	drug 2 concentration 3.33333 µM	drug 2 concentration 10 µM	drug 2 concentration 30 µM
drug 1 concentration 0.0184691 µM	99.6	100	102	98.3	96.6	79.8
drug 1 concentration 0.0554074 µM	110	103	106	106	105	83.6
drug 1 concentration 0.166222 µM	109	106	114	108	102	87.1
drug 1 concentration 0.498667 µM	107	106	105	105	99.8	84.4
drug 1 concentration 1.496 µM	107	108	102	105	96	82.8

CO[C@H]1C(=O)[C@]2(C)[C@@H](OC)C[C@H]3OC[C@@]3(OC(C)=O)[C@H]2[C@H](OC(=O)c2ccccc2)[C@]2(O)C[C@H](OC(=O)[C@H](O)[C@@H](NC(=O)OC(C)(C)C)c3ccccc3)C(C)=C1C2(C)C [Cabazitaxel] + CN1CCN(c2nc(C3=C(c4c[nH]c5ccccc45)C(=O)NC3=O)c3ccccc3n2)CC1 [Sotrastaurin]
cell viability [%]
Settings	drug 2 concentration 0 µM	drug 2 concentration 0.0123457 µM	drug 2 concentration 0.037037 µM	drug 2 concentration 0.111111 µM	drug 2 concentration 0.333333 µM	drug 2 concentration 1 µM
drug 1 concentration 0.0184691 µM	76.1	71.6	79.2	79.4	73.1	73.3
drug 1 concentration 0.0554074 µM	77.1	76	77.9	75	75.4	77.6
drug 1 concentration 0.166222 µM	85.7	87.2	84.3	82.8	80.8	82.1
drug 1 concentration 0.498667 µM	79.9	78.6	84.4	82	79.1	76.9
drug 1 concentration 1.496 µM	80.4	81	85.5	80.2	75.3	78

CO[C@H]1C(=O)[C@]2(C)[C@@H](OC)C[C@H]3OC[C@@]3(OC(C)=O)[C@H]2[C@H](OC(=O)c2ccccc2)[C@]2(O)C[C@H](OC(=O)[C@H](O)[C@@H](NC(=O)OC(C)(C)C)c3ccccc3)C(C)=C1C2(C)C [Cabazitaxel] + CN(C)C1CCN(C(=O)c2ccc(NC(=O)Nc3ccc(-c4nc(N5CCOCC5)nc(N5CCOCC5)n4)cc3)cc2)CC1 [Gedatolisib (PF-05212384; PKI-587)]
cell viability [%]
Settings	drug 2 concentration 0 µM	drug 2 concentration 0.0148148 µM	drug 2 concentration 0.0444444 µM	drug 2 concentration 0.133333 µM	drug 2 concentration 0.4 µM	drug 2 concentration 1.2 µM
drug 1 concentration 0.0184691 µM	96.7	77.5	59.4	40.9	34.4	29.9
drug 1 concentration 0.0554074 µM	99.9	74.8	54.7	34.1	29.1	28.3
drug 1 concentration 0.166222 µM	94.4	77.2	58.3	38.7	31.6	26.3
drug 1 concentration 0.498667 µM	93.4	66.1	47.3	32	25.6	25.9
drug 1 concentration 1.496 µM	95.5	70.6	51.2	34.9	30.2	25.8

CO[C@H]1C(=O)[C@]2(C)[C@@H](OC)C[C@H]3OC[C@@]3(OC(C)=O)[C@H]2[C@H](OC(=O)c2ccccc2)[C@]2(O)C[C@H](OC(=O)[C@H](O)[C@@H](NC(=O)OC(C)(C)C)c3ccccc3)C(C)=C1C2(C)C [Cabazitaxel] + CN(C)C(=O)c1cc2cnc(Nc3ccc(N4CCNCC4)cn3)nc2n1C1CCCC1 [Ribociclib]
cell viability [%]
Settings	drug 2 concentration 0 µM	drug 2 concentration 0.123457 µM	drug 2 concentration 0.37037 µM	drug 2 concentration 1.11111 µM	drug 2 concentration 3.33333 µM	drug 2 concentration 10 µM
drug 1 concentration 0.0184691 µM	101	95.6	95.9	88.4	87.3	75.5
drug 1 concentration 0.0554074 µM	105	96.5	94.1	86	86.3	79.2
drug 1 concentration 0.166222 µM	107	102	100	97.2	93.9	86.7
drug 1 concentration 0.498667 µM	106	101	95.4	86.1	89.7	80.7
drug 1 concentration 1.496 µM	109	103	94.1	93.3	90.7	83.5

Counter-ions that a name gives are not always drawn. Some well-known active drugs show little effect in this data set, so a weak value is uncertain.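 Drug pairs were tested on MCF7 breast cancer cells in a dose grid. On every plate, solvent-only DMSO wells served as the untreated reference, and a doxorubicin series served as the total-kill control. No hit threshold applies to the viability readings.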
